PubChem BioAssay AID504795 | Drosophila RNAi Screening Center, 2011
This is not the whole library: the list holds selected reagents. 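Every listed dsRNA shows some phenotype; how reagents were selected for listing is not stated.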 Reagents against one gene are numbered here.

Purpose: 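Genes required for normal axon extension and glial cell shape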 (primary screen)
Cell system: primary Drosophila neurons and glia
Reagents: long dsRNA against Drosophila genes, 250 ng dsRNA per well
Duration: one week
Detection: 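GFP-labelled neurons and glia imaged live by automated microscope one week after 250 ng dsRNA per well; morphology scored by eye as descriptive phenotype terms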

For Rnf11, what does the deposit list?
phenotype seen, replicate 1: too many neurite branches

For RasGAP1, what was measured?
phenotype seen, replicate 1: axon bundles split apart

What did the screen give for fon?
phenotype seen, replicate 1: too many neurite branches

How did the screen score Idh3g?
phenotype seen, replicate 1: too many neurite branches

For CG7202, what does the deposit list?
phenotype seen, replicate 1: sheet-like cell extensions

What did the screen give for CG9503?
phenotype seen, replicate 1: fewer cells

With CG42258 #1, how do the results read?
phenotype seen, replicate 1: axon bundles split apart

How did the screen score CG42258 #2?
phenotype seen, replicate 1: too many neurite branches

What is on record for Coq2?
phenotype seen, replicate 1: sheet-like cell extensions

With Pkc98E, what was measured?
phenotype seen, replicate 1: too many neurite branches

For CG31050, what does the deposit list?
phenotype seen, replicate 1: abnormal cell clusters

What is on record for 128up?
phenotype seen, replicate 1: axon bundles split apart

With CG5953, how do the results read?
phenotype seen, replicate 1: abnormal cell clusters

How did the screen score Smyd4-2?
phenotype seen, replicate 1: fewer cells

For Hml, what does the deposit list?
phenotype seen, replicate 1: reduced axon outgrowth

What did the screen give for side-VIII?
phenotype seen, replicate 1: too many neurite branches

Which result is listed for CG42288?
phenotype seen, replicate 1: abnormal cell clusters

For Hsp83, how do the results read?
phenotype seen, replicate 1: too many neurite branches

What is on record for Rab3-GEF?
phenotype seen, replicate 1: axon bundles split apart

With CG15651, how do the results read?
phenotype seen, replicate 1: too many neurite branches

What is on record for Gr36a?
phenotype seen, replicate 1: beaded; swollen axons

What did the screen give for Rpn2?
phenotype seen, replicate 1: sheet-like cell extensions

What is on record for Ugt37A2?
phenotype seen, replicate 1: reduced axon outgrowth

What is on record for unc-13-4A?
phenotype seen, replicate 1: abnormal cell clusters

How did the screen score CG14052?
phenotype seen, replicate 1: axon bundles split apart

With CG12477, what does the deposit list?
phenotype seen, replicate 1: fewer cells

With Wdr92, what does the deposit list?
phenotype seen, replicate 1: reduced axon outgrowth

Which result is listed for CG14147?
phenotype seen, replicate 1: reduced axon outgrowth

How did the screen score CCT4?
phenotype seen, replicate 1: axon bundles split apart

What did the screen give for swm #1?
phenotype seen, replicate 1: too many neurite branches

What did the screen give for swm #2?
phenotype seen, replicate 1: axon bundles split apart; phenotype seen, replicate 2: too many neurite branches

How did the screen score mRNA-cap?
phenotype seen, replicate 1: weaker green signal

Only “phenotype seen, replicate 1”, for 3 of the entries above:
Hml: reduced axon outgrowth
side-VIII: too many neurite branches
CG42288: abnormal cell clusters
